Here are results for two molecules from PMC9445010.

The target in the experiment is PmoC (Methylococcus capsulatus (Bath) (endogenous in M. capsulatus (Bath))). In words: cryo-EM structure; cryoET with subtomogram averaging of isolated M. capsulatus (Bath) membranes, no detergent; 25 mM PIPES pH 7.3, 250 mM NaCl; single trimer 4.8 Å, 7-particle unit 10 Å, three trimers 12 Å; 3-fold symmetry applied.

No constants are given. Whether binding was seen depends on the method and setting. Binding calls can cover weak binding; strength is not graded here.

B1: PmoB (protein, UniProt G1UBD1 33-414)
chain: HGEKSQAAFMRMRTIHWYDLSWSKEKVKINETVEIKGKFHVFEGWPETVDEPDVAFLNVGMPGPVFIRKESYIGGQLVPRSVRLEIGKTYDFRVVLKARRPGDWHVHTMMNVQGGGPIIGPGKWITVEGSMSEFRNPVTTLTGQTVDLENYNEGNTYFWHAFWFAIGVAWIGYWSRRPIFIPRLLMVDAGRADELVSATDRKVAMGFLAATILIVVMAMSSANSKYPITIPLQAGTMRGMKPLELPAPTVSVKVEDATYRVPGRAMRMKLTITNHGNSPIRLGEFYTASVRFLDSDVYKDTTGYPEDLLAEDGLSVSDNSPLAPGETRTVDVTASDAAWEVYRLSDIIYDPDSRFAGLLFFFDATGNRQVVQIDAPLIPSFM
As to B1, the binding result is listed as “binds”.

B2: PmoA (protein, UniProt Q607G3 1-247)
chain: MSAAQSAVRSHAEAVQVSRTIDWMALFVVFFVIVGSYHIHAMLTMGDWDFWSDWKDRRLWVTVTPIVLVTFPAAVQSYLWERYRLPWGATVCVLGLLLGEWINRYFNFWGWTYFPINFVFPASLVPGAIILDTVLMLSGSYLFTAIVGAMGWGLIFYPGNWPIIAPLHVPVEYNGMLMSIADIQGYNYVRTGTPEYIRMVEKGTLRTFGKDVAPVSAFFSAFMSILIYFMWHFIGRWFSNERFLQST
On to B2, for which the binding result is given as “binds”.
